Results published in PubChem BioAssay AID2685 (National Center for Advancing Translational Sciences (NCATS), 2010).
This is one part of the list. Shown are side measurements of this screen, not its main read-out; they come without a call. The list favours compounds with an active or inconclusive main result. Potencies come from curve fits of mixed quality, noted in brackets.

Assay: qHTS Assay for Lipid Storage Modulators in Drosophila S3 Cells;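 as to cell number change: cells counted by Cell Tracker Red CMTPX staining in the red channel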
Settings: BODIPY lipid droplet fluorescence, 18-24 h; for cell number change: measured here: cell count max response, cells fed with added oleic acid
Method in brief: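 Drosophila S3 cells loaded with oleic acid (400 uM, as added) and compounds at several concentrations; lipid droplets imaged by 488-nm laser-scanning cytometry, 500–530 nm intensity and object ratio to cell channel. Percent activity normalized to 20 uM Triacsin C.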

[1] = measured here: cell number channel AC50, cells fed with added oleic acid
[2] = measured here: lipid fluorescence (Fed channel) AC50, cells fed with added oleic acid

SMILES	cell number change [%]	AC50 [1]	AC50 [2]
CC1=Nc2cccc([N+](=O)[O-])c2NC(=O)C1	78	6.51 µM [falling, single point]	6.51 µM [falling, single point]
COc1ccc(OCC(=O)N/N=C(\C)c2ccc(OC)cc2)cc1	27.5	1.84 µM [rising, full curve, poor fit]	2.06 µM [rising, partial curve]
O=C(CCCn1c(=O)c2sccc2n(Cc2cc(=O)n3ccccc3n2)c1=O)NCc1ccco1		0.326 µM [rising, full curve, poor fit]	0.366 µM [rising, full curve]
O=C(CN1CCN(Cc2ccccc2F)C1=O)NCCc1ccc(Cl)cc1	11.1		0.0731 µM [rising, full curve, poor fit]
O=c1ccccn1Cc1c(F)cccc1Cl	46	8.2 µM [rising, partial curve, poor fit]	6.51 µM [rising, single point]
CCOc1ccc(CNc2ncnc(N)n2)cc1		6.51 µM [rising, single point]	
CCN1C(=O)[C@H]2[C@@H](c3ccc(-c4ccc5c(c4)OCO5)c(OC)c3)N[C@@](CC(C)C)(C(=O)OC)[C@H]2C1=O	-4.88		6.51 µM [falling, single point]
CCOc1ccccc1CNC(=O)CCCn1ccc2cc(S(=O)(=O)N3CCCC3)ccc21	-37.5	16.4 µM [falling, single point]	13 µM [falling, partial curve]
CCOC(=O)N/N=C(/C)c1cccc(-n2cnnn2)c1	-11.3		6.51 µM [falling, single point]
O=[N+]([O-])c1ccccc1-c1cc(-c2ccccc2O)n[nH]1		4.11 µM [rising, single point]	2.31 µM [rising, single point]
COc1ccc(NC(=O)CSCC(=O)N(C)Cc2cccc(OC)c2OC)cc1	25	6.51 µM [rising, partial curve, poor fit]	
CCOCCCNC(=O)C(c1ccc(Cl)cc1)N1CCN(c2ccccc2)CC1 (stereo not drawn)	30	1.84 µM [rising, partial curve, poor fit]	32.6 µM [rising, single point]
CCOc1ccc(CCNC(=O)c2cnc(C)cn2)cc1OCC	20.9		5.8 µM [rising, partial curve, poor fit]
COc1cccc(C(=O)Nc2nnc(S(=O)(=O)N3CCCC3)s2)c1			4.61 µM [falling, full curve]
COc1ccc(C(=O)c2c(-c3cccc(C)c3)oc3ccc(N4CCOCC4)cc23)cn1	4.21		0.58 µM [falling, single point]
c1cncc(C2OCC3(CO2)COC(c2cccnc2)OC3)c1 (stereo not drawn)	0.597		3.66 µM [falling, single point]
CCn1c(/C=C2\C(=O)Nc3ccccc32)nc2ccccc2c1=O	1.37		0.651 µM [falling, partial curve, poor fit]
CCOc1cc(C(=S)N2CCCCC2)ccc1OCC(=O)NCc1ccccc1			6.51 µM [falling, single point]
CCc1ccc(C2C(C(=O)O)c3ccccc3C(=O)N2C)cc1 (stereo not drawn)	-55.8	3.66 µM [falling, full curve]	29.1 µM [falling, single point]

In a second layout: results already given.
SMILES | cell number change [%] | AC50 [1] | AC50 [2]
COc1ccc(NC(=O)CSCC(=O)N(C)Cc2cccc(OC)c2OC)cc1 | 25 | 6.51 µM [rising, partial curve, poor fit] | 
CCOc1ccc(CCNC(=O)c2cnc(C)cn2)cc1OCC | 20.9 |  | 5.8 µM [rising, partial curve, poor fit]
c1cncc(C2OCC3(CO2)COC(c2cccnc2)OC3)c1 (stereo not drawn) | 0.597 |  | 3.66 µM [falling, single point]

(further entries)

SMILES	cell number change [%]	AC50 [1]	AC50 [2]
COc1ccccc1CN1CC(C(=O)N2CCCCO2)CCC1=O (stereo not drawn)	2.59		20.6 µM [rising, partial curve]
Cc1ccc(OCC(=O)Nc2nnc(S(=O)(=O)N3CCCCCC3)s2)cc1	15.9		29.1 µM [rising, single point]
CN(C)C(CNC(=O)c1cc(S(=O)(=O)N(C)c2ccccc2)ccc1Cl)c1ccccc1 (stereo not drawn)	25.5	6.51 µM [rising, single point]	
Cc1nn(C(=O)c2ccco2)c(C)c1Br	3.47		4.61 µM [falling, single point]
CN(CC(=O)Nc1ccc(Cl)c(C(F)(F)F)c1)C(=O)C1CCC1			18.4 µM [rising, partial curve]
COc1ccc(CCN(Cc2cc3cccc(C)c3[nH]c2=O)C(=O)N2CCCC2)cc1OC	4.92		0.58 µM [rising, single point]
COc1ccc(OC)c(-c2nc3ccccc3nc2-c2ccccc2)c1	-8.02		
O=S(=O)(O)c1cccc(N=Nc2c(O)ccc3ccccc23)c1	17.2		
COc1ccc2nc(SCc3nc(N)nc(Nc4ccccc4)n3)[nH]c2c1	-13.6		10.3 µM [rising, partial curve]
c1ccc(-c2noc(C3CCCCC3)n2)nc1		6.51 µM [rising, single point]	
COc1cc(/C=C2\CCCc3c2nc2ccccc2c3C(=O)O)cc(Br)c1O	-32.4	32.6 µM [falling, single point]	6.51 µM [falling, single point]
O=C(NCCN1CCOCC1)C1CCC(CNS(=O)(=O)c2ccccc2)CC1 (stereo not drawn)	7.96		29.1 µM [falling, single point]
COc1ccc([C@@H]2[C@@H]3C(=O)N(C(C)(C)C)C(=O)[C@@H]3[C@]3(C)C(=O)N(c4cccc(F)c4)C(=O)N23)cc1	8.74		29.1 µM [rising, single point]
COc1ccccc1NC(=O)Nc1nc(CC(=O)NCc2ccccn2)cs1		1.84 µM [rising, partial curve]	1.84 µM [rising, partial curve]
CC(=O)Nc1ccc(OCC(O)Cn2cccn2)cc1 (stereo not drawn)	8.42		
S=C(c1c[nH]c2ccccc12)N1CCCC1	4.72		0.651 µM [falling, single point]
O=C(CCCn1c(=S)[nH]c2ccc(Br)cc2c1=O)NCc1ccccn1	-0.494		29.1 µM [falling, single point]
Cc1cc([N+](=O)[O-])nn1Cc1noc(C(=O)NCCc2ccccn2)n1	7.21		0.58 µM [rising, single point]
O=C(N1CCOCC1)N(Cc1ccccc1)c1ccccn1	-46.5	1.3 µM [falling, partial curve]	0.13 µM [falling, full curve]

SMILES	cell number change [%]	AC50 [1]	AC50 [2]
CCCCn1c(N)c(N(CCOC)C(=O)C2CCN(C(=O)c3ccccc3C)CC2)c(=O)[nH]c1=O	-2.03	0.146 µM [falling, full curve, poor fit]	0.651 µM [falling, single point]
O=C(NCN1CCc2ccccc2C1)c1cnccn1	-1.62		
COc1ccc(CCNC(=S)N2CCN(S(=O)(=O)c3cccc(F)c3)CC2)cc1			0.082 µM [falling, single point]
CC(C)(C)c1nnc(NS(=O)(=O)c2ccc([N+](=O)[O-])cc2)s1	0.702		
CCCCCCCCCCCC(=O)NC(Cc1ccc(OC)c([N+](=O)[O-])c1)C(=O)O (stereo not drawn)	-8.32		0.116 µM [falling, full curve, poor fit]
CC(C)Cn1c(N)c(C(=O)COC(=O)c2cc(C3CC3)nc3ccccc23)c(=O)n(C)c1=O	-57.3	20.6 µM [falling, partial curve]	13 µM [falling, partial curve]
COCC(C)NC(=O)/C(=C/c1ccccc1)c1ccccc1 (stereo not drawn)	16.8		
CCOC(=O)c1c(NC(C)=O)sc(/C(C)=N/Nc2ccc(C(=O)O)cc2)c1C	5.79		0.517 µM [falling, partial curve, poor fit]
Cc1ccc(Sc2cnc(N)nc2C)cc1	-29.6		0.231 µM [falling, full curve]
CC(=O)Nc1ccc(N2C(=O)CSC2c2cccc([N+](=O)[O-])c2)cc1 (stereo not drawn)	76.1	23.1 µM [rising, single point]	
CCCN(CC(=O)Nc1ccccc1C)C(=O)c1ccc(C2SCCS2)cc1	31.9	2.91 µM [rising, partial curve]	1.84 µM [rising, partial curve]
COc1cccc(CNC(=O)CN2C(=O)CSc3ccc(S(=O)(=O)N4CCCCC4)cc32)c1	-24.2	0.58 µM [rising, single point]	6.51 µM [rising, single point]
Cc1ccc(N(C(=O)c2snc(C(N)=O)c2N)C(C(=O)NC2CCCC2)c2ccc(C)o2)cc1 (stereo not drawn)	-2.63		5.62 µM [falling, single point]
Cc1cc(C(=O)NNC(=O)c2cccs2)nn1C(C)(C)C			4.11 µM [rising, single point]
COCCNC(=O)C(=O)Nc1ccc(Cl)cc1C	6.28		18.4 µM [rising, single point]
COC(=O)C1CCN(c2cc(=O)n(-c3ccccc3Cl)c(=O)[nH]2)CC1	14.6		5.8 µM [rising, partial curve, poor fit]
COc1ccc(NC(=O)CSc2nc(O)cc(=O)n2C)cc1	-54.8	2.91 µM [falling, full curve]	
COc1ccc(C(=O)NNC(=O)CSc2nnc(COc3ccccc3OC)n2C)cc1	6.42	4.11 µM [falling, single point]	
CCc1ccc(NC(=O)CC2C(=O)N(c3ccc(C)cc3)C(=O)N2C2CC2)cc1 (stereo not drawn)	-4.5		0.13 µM [rising, single point]
